Assay [1] concerns the target HA-FOXC1 (in F9 cells) (mouse) (UniProt Q61572). In words: ChIP-reChIP; F9 cells co-overexpressing HA-FOXC1 and 3*Flag-HDAC2, 48 h; formaldehyde-fixed chromatin; first round anti-HA (or IgG), eluted, second round anti-Flag; Q-RT-PCR of region P3 of the Nanog promoter.
The target of another assay is 3*Flag-FOXC1 (mouse) (UniProt Q61572). The assay can be described thus: co-IP; HEK293T cells co-transfected; lysate in Pierce IP Lysis Buffer; anti-Flag antibody (IgG as control), protein A/G agarose, 4 °C; blots with anti-GFP and anti-HA.

Sequences of proteins named here, by UniProt entry; tags and fusion partners are left off.
UniProt P70288: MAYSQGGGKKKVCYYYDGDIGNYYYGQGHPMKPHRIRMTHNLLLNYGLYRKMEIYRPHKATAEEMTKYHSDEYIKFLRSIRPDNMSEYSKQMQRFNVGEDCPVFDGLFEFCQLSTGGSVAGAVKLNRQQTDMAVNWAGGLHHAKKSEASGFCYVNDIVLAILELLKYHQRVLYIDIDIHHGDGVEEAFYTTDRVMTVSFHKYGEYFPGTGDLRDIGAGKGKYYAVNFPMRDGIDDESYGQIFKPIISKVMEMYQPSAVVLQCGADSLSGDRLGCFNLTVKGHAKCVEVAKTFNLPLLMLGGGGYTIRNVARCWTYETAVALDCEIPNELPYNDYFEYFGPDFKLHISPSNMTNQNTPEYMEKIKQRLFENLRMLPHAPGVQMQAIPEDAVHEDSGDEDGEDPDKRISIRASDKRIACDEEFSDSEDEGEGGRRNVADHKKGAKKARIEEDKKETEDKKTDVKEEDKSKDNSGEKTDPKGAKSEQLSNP
UniProt Q08288: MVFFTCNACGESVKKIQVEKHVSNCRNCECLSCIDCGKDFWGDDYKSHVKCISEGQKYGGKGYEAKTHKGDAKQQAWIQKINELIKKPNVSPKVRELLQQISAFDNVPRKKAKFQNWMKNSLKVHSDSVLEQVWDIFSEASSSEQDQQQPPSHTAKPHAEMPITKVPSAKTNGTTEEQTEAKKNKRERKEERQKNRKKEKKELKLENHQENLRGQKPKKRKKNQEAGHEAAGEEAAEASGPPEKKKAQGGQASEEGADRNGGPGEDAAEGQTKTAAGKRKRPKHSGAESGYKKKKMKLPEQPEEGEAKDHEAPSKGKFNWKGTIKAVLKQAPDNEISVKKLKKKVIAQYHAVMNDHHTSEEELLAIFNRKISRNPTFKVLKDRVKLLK

Results are given in words; binding and its absence hold for the method and conditions named. For part of these data: Binding seen in cells or lysates may run through a third protein. Some entries that bind do so weakly or less than the wild type. Sequences can lack the tags named with a protein.

Consider “3*Flag-HDAC2 (in F9 cells) (from UniProt P70288 1-488)”, for which the binding result in assay [1] was “binds”. Turning to GFP-HDAC2 (from UniProt P70288 1-488), the binding result with 3*Flag-FOXC1 (mouse) is “binds”. On to GFP-LYAR (from UniProt Q08288 1-388), for which the binding result in the assay with 3*Flag-FOXC1 (mouse) was “binds”.

The values are drawn from paper PMC7956269.
